Read-outs that look alike come from different tables or passages of the source. Results are given in words; binding and its absence hold for the method and conditions named. Some entries that bind do so weakly or less than the wild type. One block for each binder: values may come before it.
Legend:
Test in all cases: negative stain electron microscopy
[1] = target: Drosophila CTPS, purified from E. coli (Drosophila) (UniProt Q9VUL1)
[2] = target: Drosophila P5CS, purified from E. coli (Drosophila) (UniProt Q9VNW6)
[3] = target: Drosophila P5CS, purified from E. coli (Drosophila) (UniProt Q9VNW6); remark: listed apart in the source

binding [1]: binds
B1: Drosophila CTPS, purified from E. coli (enzyme, UniProt Q9VUL1 1-627)
chain: MKYILVTGGVISGVGKGVIASSFGTLLKSCGLDVTSIKIDPYINIDAGTFSPYEHGEVYVLDDGAEVDLDLGNYERFLDVTLHRDNNITTGKIYKLVIEKERTGEYLGKTVQVVPHITDAIQEWVERVAQTPVQGSSKPQVCIVELGGTIGDIEGMPFVEAFRQFQFRVKRENFCLAHVSLVPLPKATGEPKTKPTQSSVRELRGCGLSPDLIVCRSEKPIGLEVKEKISNFCHVGPDQVICIHDLNSIYHVPLLMEQNGVIEYLNERLQLNIDMSKRTKCLQQWRDLARRTETVRREVCIAVVGKYTKFTDSYASVVKALQHAALAVNRKLELVFIESCLLEEETLHSEPSKYHKEWQKLCDSHGILVPGGFGSRGMEGKIRACQWARENQKPLLGICLGLQAAVIEFARNKLGLKDANTTEIDPNTANALVIDMPEHHTGQLGGTMRLGKRITVFSDGPSVIRQLYGNPKSVQERHRHRYEVNPKYVHLLEEQGMRFVGTDVDKTRMEIIELSGHPYFVATQYHPEYLSRPLKPSPPFLGLILASVDRLNQYIQRGCRLSPRQLSDASSDEEDSVVGLAGATKSLSSLKIPITPTNGISKSCNGSISTSDSEGACGGVDPTNGHK

binding [2]: binds weakly | binding [3]: binds weakly
B2: Drosophila P5CS, purified from E. coli (enzyme, UniProt Q9VNW6 1-776, looked up)
chain: MLQNSFKLAQSLRNGFYRNAWRAFSSHGPRQPLVSPERRLEKAHPTFTERSQLKYARRLVVKLGSAVITREDNHGLALGRLASIVEQVAECHLEGREVMMVTSGAVAFGKQKLAQELLMSLSMRETLNPKDSKEFDGATLEPRAAAAVGQSGLMSLYDAMFAQYGVKIAQVLVTKPDFYNEETRNNLFCTLSELISLNIVPIINTNDAVSPPMFIRDDEPAGGARRGIPIKDNDSLSAMLAAEVQADLLILMSDVDGIYNKPPWEDGAKLMHTYTSDDSNSIEFGKKSKVGTGGMDSKVKAATWALDRGVSVVICNGMQEKAIKTIIGGRKVGTFFTEATESANAVPVEVMAENARTGSRQMQALTPAQRASAVNTLADLLVSREKFILDANAKDLAEAQKSGLAKPLLSRLSLNPAKLKNLSVGLKQIAEDSHKNVGRVLRRTRLADQLELKQVTVPIGVLLVIFESRPDSLPQVAALAMASANGLLLKGGKEAAHSNKALMELVKEALATVGAEHAVSLVSTREEISDLLSMENHIDLIIPRGSSDLVRSIQQQSLHIPVLGHAEGVCHVYIDRDADLEKALRIARDAKCDYPAACNAMETLLIHEDLMSGAIFGDVCNMLKREGVKIYAGPRLNQQLTFGPPAAKSLKHEYGALECCIEVVPSLDEAINHIHTYGSSHTDVIVTENDAAARQFLGSVDSACVFHNASSRFADGFRFGLGAEVGISTARIHARGPVGVEGLLTTKWILEGQDHAAADFAEGGGRTWLHETLPLD

From paper doi:10.1101/2019.12.11.872267 (bioRxiv, 2019)
